Measurements from PubChem BioAssay AID504834 (National Center for Advancing Translational Sciences (NCATS), 2011).
Among all 320,000 compounds or so, about 22,000 (6.9%) were called active. Inconclusive results, whose numbers are uncertain, are shown with a selection of clear calls. The call rests on the fitted dose curve; in most records, active means well fitted inhibition curve with a large enough effect; inconclusive means small, poorly fitted or top-dose-only effect, or another doubt; inactive means no such curve, though single readings can be large or run the other way. A potency beside an inconclusive call is a rough fit, not a confirmed value.

assay: Primary qHTS for delayed death inhibitors of the malarial parasite plastid, 96 hour incubation; details: P. falciparum luciferase reporter growth; series mostly up to 28.7 µM
Summary of the method: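 Cell-based qHTS: luciferase-tagged P. falciparum in erythrocytes (2% hematocrit, 0.05% parasitemia final) incubated with compounds for 96 hours, 37 C, 5% CO2; luciferase detection reagent then added and luminescence measured.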
On the % scale 0 is the no-effect control and ±100 the full control effect; potency means the concentration at half of the fitted maximal effect.

| Structure (SMILES) | Potency | activity change, negative = inhibition |
| --- | --- | --- |
| CCOC(=O)N1CCC(N2Cc3cccc(C(=O)Nc4ccc(OCC)cc4)c3C2=O)CC1 | inconclusive: 18.5 µM [inhibitor, single point] | – |
| CC(C)(C)OC(=O)N1C[C@H](O)C[C@H]1C(=O)OCC(=O)c1ccc([N+](=O)[O-])cc1 | inactive | – |
| O=C(O)CCc1cccnc1 | inconclusive: 0.0657 µM [inhibitor, full curve, poor fit] | – |
| O=C(Nc1ccc([N+](=O)[O-])cn1)C1CCCCC1 | inconclusive: 10.4 µM [inhibitor, partial curve] | – |
| COc1cccc(Nc2nc(-c3cccs3)nc3ccccc23)c1 | inactive | – |
| Cc1cccc(COCC(Cc2ccccc2)N2CCN(C(=O)c3cccc(C)c3)CCC2=O)c1 (stereo not drawn) | inconclusive: 13.1 µM [inhibitor, partial curve] | – |
| COc1ccccc1/C=C/CN1CCC(Oc2ccc(C(=O)N3CCCCC3)cc2)CC1 | inactive | – |
| O=C(Nc1nnc(-c2ccccc2)o1)NC1CCCCC1 | active: 3.7 µM | – |
| C=CCN(CC=C)C(=S)NC(=O)c1ccc(-c2ccccc2)cc1 | active: 7.38 µM | – |
| COc1ccc(Cn2nnnc2CN2CCc3ccccc3C2)cc1 | active: 13.1 µM | – |
| C/C(CC(=O)Nc1ccc(C)c(Cl)c1)=N\NC(=O)c1ccccn1 | inactive | – |
| CCn1c(O)c(C=NCc2ccccc2)sc1=S | inactive | – |
| CCNc1nc(NC(C)C)nc(N(C#N)C(C)C(=O)N(C)C)n1 (stereo not drawn) | inconclusive: 18.5 µM [inhibitor, single point] | – |
| COc1ccc(S(=O)(=O)N2CCOC2CNC(=O)C(=O)NCc2ccncc2)cc1OC (stereo not drawn) | inactive | – |
| O=C(O)C1CCCN1C(=O)Nc1ccc(Cl)cc1 (stereo not drawn) | inconclusive: 18.5 µM [inhibitor, single point] | – |
| O=[N+]([O-])c1cc(/C=N/N2CCN(c3ccccc3)CC2)ccc1Cl | inconclusive: 0.0657 µM [inhibitor, full curve, poor fit] | – |
| CCc1ccc(C(C(=O)NC2CCCC2)N(C(=O)c2csnn2)C2CC2)cc1 (stereo not drawn) | inconclusive: 7.38 µM [inhibitor, partial curve] | – |
| CC(C)CNC(=O)NC(=O)CSc1nc2ccccc2n1CC(C)C | inconclusive: 9.28 µM [inhibitor, single point] | – |
| COc1ccc2c(c1)OC13CCCCC1C2C(C(=O)c1ccccc1)C(=O)N3 (stereo not drawn) | inactive | – |
| N#Cc1nc(-c2ccc(OCc3ccccc3)cc2)oc1NCc1cccnc1 | inconclusive: 18.5 µM [inhibitor, single point] | – |
| O=C1CCc2cc(S(=O)(=O)N3CCC(C(=O)NCc4ccccn4)CC3)ccc2N1 | inconclusive: 13.1 µM [inhibitor, single point] | – |
| Cc1c(C(=O)N2CCN(C(=O)c3ccccc3)CC2)oc2ccc(F)cc12 | inconclusive: 8.28 µM [inhibitor, partial curve, poor fit] | – |
| CCOc1ccc(-n2ccnc2SCC(=O)NCc2ccc3c(c2)OCO3)cc1 | inactive | – |
| COc1ccc(C(=O)N/C(=C\c2ccco2)C(=O)NCc2ccco2)cc1 | inactive | – |
| COC(=O)CC1C(=O)NCCN1C(=S)Nc1ccccc1 (stereo not drawn) | inactive | – |

| Structure (SMILES) | Potency | activity change, negative = inhibition |
| --- | --- | --- |
| Cc1ccc2c(C)c(C(=O)N3CCCC(C(N)=O)C3)oc2c1C (stereo not drawn) | inconclusive: 0.0165 µM [inhibitor, full curve, poor fit] | – |
| CCCn1c(SCC(=O)NCc2ccc(Cl)cc2)n[nH]c1=O | inactive | – |
| CCCNC(=O)CCCCn1c(=S)[nH]c2c([nH]c3ccc(OC)cc32)c1=O | inactive | – |
| Cc1ccc(O)c(NC2=C(Cl)C(=O)N(Cc3ccccc3)C2=O)c1 | inconclusive: 9.28 µM [inhibitor, partial curve] | – |
| Cc1ccc(Cl)cc1N1CCN(Cc2cc3c(cc2O)CCC3)CC1 | active: 0.147 µM | – |
| Cc1ccccc1NC(=O)COC(=O)c1ccc(S(=O)(=O)N2CCCC2)cc1 | inactive | – |
| CCN(CC(=O)NC1CCS(=O)(=O)C1)C(=O)/C=C/c1cccs1 (stereo not drawn) | inactive | – |
| CC(C)CC(=O)Nc1nc2ccc(S(C)(=O)=O)cc2s1 | inconclusive: 8.28 µM [inhibitor, partial curve] | – |
| Cc1noc(C)c1-c1ccc2ncnc(NC(C)c3ccco3)c2c1 (stereo not drawn) | inconclusive: 1.31 µM [inhibitor, full curve] | – |
| O=C(Oc1ccccc1N1CCOCC1)c1sccc1Br | inactive | – |
| O=C1N/C(=C/c2cccn2-c2ccccc2)C(=O)N1Cc1ccc(F)cc1 | inconclusive: 11.7 µM [inhibitor, single point] | – |
| Nc1nnc(-c2cccc([N+](=O)[O-])c2)s1 | inconclusive: 4.65 µM [inhibitor, partial curve, poor fit] | – |
| N#Cc1cc(-c2ccccc2)[nH]c1-c1nccc2ccccc12 | inconclusive: 2.33 µM [inhibitor, single point] | – |
| Cc1cccc(C)c1N1CCN(S(=O)(=O)N2CCOCC2)CC1 | inconclusive: 18.5 µM [inhibitor, single point] | – |
| Cc1ccc(S(=O)(=O)N(C)c2ccc(C(=O)N(C)Cc3nc4ccccc4c(=O)[nH]3)cc2)cc1 | active: 5.86 µM | – |
| CN(C)S(=O)(=O)c1cccc(C(=O)Nc2n[nH]c(C(F)(F)F)n2)c1 | inactive | – |
| Cc1ccccc1N1CCN(C(=O)c2cc(C3CC3)nn2-c2ccccc2)CC1 | inconclusive: 18.5 µM [inhibitor, single point] | – |
| CSc1nccc(-c2sc(SC)c(C#N)c2-c2ccccc2)n1 | inconclusive: 9.28 µM [inhibitor, partial curve, poor fit] | – |
| N/C(=N\OC(=O)c1cc([N+](=O)[O-])ccc1Cl)c1cccnc1 | inactive | – |
| Cn1cc(CNCc2ccc(OC(F)(F)F)cc2)c(-c2ccc3c(c2)OCCO3)n1 | inconclusive: 18.5 µM [inhibitor, single point] | – |
| CCC(=O)N(Cc1ccc(S(N)(=O)=O)cc1)C1CC(=O)N(c2ccccc2)C1=O (stereo not drawn) | inconclusive: 6.57 µM [inhibitor, partial curve, poor fit] | – |
| COc1ccc(-c2nc(NC(=O)C3CC(=O)N(c4ccc5c(c4)OCCO5)C3)sc2C)cc1 (stereo not drawn) | inconclusive: 10.4 µM [inhibitor, partial curve, poor fit] | – |
| CCN1CCC(N(C)C2CCCCC2)CC1 | inconclusive: 1.47 µM [inhibitor, full curve] | – |
| O=C(O)CSc1cc(NS(=O)(=O)c2cccc([N+](=O)[O-])c2)c2ccccc2c1O | inconclusive: 9.28 µM [inhibitor, partial curve, poor fit] | – |
| CC(C)CC1C(C#N)=C(N)Oc2n[nH]c(-c3ccccc3)c21 (stereo not drawn) | inconclusive: 18.5 µM [inhibitor, single point] | – |

| Structure (SMILES) | Potency | activity change, negative = inhibition |
| --- | --- | --- |
| COc1ccc(/C=C2\SC(=S)N(CCCC(=O)Nc3cccc(C(=O)O)c3)C2=O)cc1OC | inconclusive: 18.5 µM [inhibitor, single point] | – |
| CCC(C)(C)NC(=O)C(c1ccccc1F)N(Cc1ccco1)C(=O)Cn1nnc2ccccc21 (stereo not drawn) | inconclusive: 10.4 µM [inhibitor, partial curve, poor fit] | – |
| CCn1nc(C)cc1C(=O)N1CCCC(CCC(=O)NCc2ccccc2F)C1 (stereo not drawn) | inconclusive: 0.828 µM [inhibitor, full curve] | – |
| O=C(Nc1nc2cc3c(cc2s1)OCO3)c1ccco1 | inactive | – |
| Nc1c(C(=O)NCc2ccco2)sc2nc(N3CCOCC3)c3c(c12)CCCC3 | inconclusive: 20.8 µM [inhibitor, partial curve, poor fit] | – |
| O=[N+]([O-])c1ccc(-c2cn(-c3ccccc3)c(=S)[nH]2)cc1 | inactive | – |
| CC1CN=C(Nc2cccc3ccccc23)S1 (stereo not drawn) | inactive | – |
| OC(CN1CCN(c2ccc(C(F)(F)F)cn2)CC1)c1ccccc1 (stereo not drawn) | inactive | – |
| Cc1ccc(S(=O)(=O)N(C)C)cc1NC(=O)COC(=O)c1ccc2c(=O)n3c(nc2c1)CCC3 | inactive | – |
| N#CC1=C(N)NC(SCc2ccc(Cl)cc2)=C(C#N)C12CCCCC2 | – | inactive: -1.6% [at 5.75 µM] |
| COc1cc(SC)ccc1C(=O)NCCN1CCOCC1 | inactive | – |
| Cc1ccc(OCC(=O)NCCCNC(=O)COc2ccc(C)cc2)cc1 | inconclusive: 10.4 µM [inhibitor, single point] | – |
| C=CCn1c(O)c2ccc(C(=O)N=NC(=O)c3ccc(F)cc3)cc2c1O | inactive | – |
| Cc1ccc(N2CN(S(=O)(=O)c3cccc([N+](=O)[O-])c3)c3nc4ccccc4nc32)cc1 | inconclusive: 11.7 µM [inhibitor, single point] | – |
| O=C1N/C(=N/O)S/C1=C\c1ccccc1-n1cccn1 | inconclusive: 10.4 µM [inhibitor, single point] | – |
| COc1ccc(CCN2CC(O)=C(c3nc(C)cs3)C2=N)cc1OC | inactive | – |
| O=C(O)c1ccc2c(=O)n3cc(C(=O)c4ccccc4O)cc(Cl)c3nc2c1 | inconclusive: 18.5 µM [inhibitor, single point] | – |
| Cc1cc(C)c(C)c(S(=O)(=O)NC2CCN(Cc3ccccc3)CC2)c1C | inconclusive: 2.94 µM [inhibitor, single point] | – |
| O=C(CSCc1ccccc1)N/N=C/c1ccc(OCC(=O)N2CCCCC2)cc1 | inactive | – |
| CCCCOC(=O)Nc1ccccc1C(=O)OC | inconclusive: 10.4 µM [inhibitor, single point] | – |
| CCOc1cc(/C=N/N2CCN(Cc3ccccc3)CC2)ccc1O | inactive | – |
| O=c1c2ccccc2nc(/C=C/c2ccc([N+](=O)[O-])o2)n1CCCO | active: 2.62 µM | – |
| CC(=O)N1CCN(S(=O)(=O)c2cccc(C(=O)N(Cc3ccccc3)c3ccc(C)cc3)c2)CC1 | inconclusive: 8.28 µM [inhibitor, partial curve] | – |

Shown tab-delimited: part of the list above.
Structure (SMILES)	Potency	activity change, negative = inhibition
Cc1ccccc1NC(=O)COC(=O)c1ccc(S(=O)(=O)N2CCCC2)cc1	inactive	–
CCN(CC(=O)NC1CCS(=O)(=O)C1)C(=O)/C=C/c1cccs1 (stereo not drawn)	inactive	–
CC(C)CC(=O)Nc1nc2ccc(S(C)(=O)=O)cc2s1	inconclusive: 8.28 µM [inhibitor, partial curve]	–
Cc1noc(C)c1-c1ccc2ncnc(NC(C)c3ccco3)c2c1 (stereo not drawn)	inconclusive: 1.31 µM [inhibitor, full curve]	–
O=C(Oc1ccccc1N1CCOCC1)c1sccc1Br	inactive	–
O=C1N/C(=C/c2cccn2-c2ccccc2)C(=O)N1Cc1ccc(F)cc1	inconclusive: 11.7 µM [inhibitor, single point]	–
Nc1nnc(-c2cccc([N+](=O)[O-])c2)s1	inconclusive: 4.65 µM [inhibitor, partial curve, poor fit]	–
N#Cc1cc(-c2ccccc2)[nH]c1-c1nccc2ccccc12	inconclusive: 2.33 µM [inhibitor, single point]	–
Cc1cccc(C)c1N1CCN(S(=O)(=O)N2CCOCC2)CC1	inconclusive: 18.5 µM [inhibitor, single point]	–
Cc1ccc(S(=O)(=O)N(C)c2ccc(C(=O)N(C)Cc3nc4ccccc4c(=O)[nH]3)cc2)cc1	active: 5.86 µM	–
CN(C)S(=O)(=O)c1cccc(C(=O)Nc2n[nH]c(C(F)(F)F)n2)c1	inactive	–
Cc1ccccc1N1CCN(C(=O)c2cc(C3CC3)nn2-c2ccccc2)CC1	inconclusive: 18.5 µM [inhibitor, single point]	–
CSc1nccc(-c2sc(SC)c(C#N)c2-c2ccccc2)n1	inconclusive: 9.28 µM [inhibitor, partial curve, poor fit]	–
N/C(=N\OC(=O)c1cc([N+](=O)[O-])ccc1Cl)c1cccnc1	inactive	–
Cn1cc(CNCc2ccc(OC(F)(F)F)cc2)c(-c2ccc3c(c2)OCCO3)n1	inconclusive: 18.5 µM [inhibitor, single point]	–
CCC(=O)N(Cc1ccc(S(N)(=O)=O)cc1)C1CC(=O)N(c2ccccc2)C1=O (stereo not drawn)	inconclusive: 6.57 µM [inhibitor, partial curve, poor fit]	–
COc1ccc(-c2nc(NC(=O)C3CC(=O)N(c4ccc5c(c4)OCCO5)C3)sc2C)cc1 (stereo not drawn)	inconclusive: 10.4 µM [inhibitor, partial curve, poor fit]	–
CCN1CCC(N(C)C2CCCCC2)CC1	inconclusive: 1.47 µM [inhibitor, full curve]	–
O=C(O)CSc1cc(NS(=O)(=O)c2cccc([N+](=O)[O-])c2)c2ccccc2c1O	inconclusive: 9.28 µM [inhibitor, partial curve, poor fit]	–
CC(C)CC1C(C#N)=C(N)Oc2n[nH]c(-c3ccccc3)c21 (stereo not drawn)	inconclusive: 18.5 µM [inhibitor, single point]	–
COc1ccc(/C=C2\SC(=S)N(CCCC(=O)Nc3cccc(C(=O)O)c3)C2=O)cc1OC	inconclusive: 18.5 µM [inhibitor, single point]	–
CCC(C)(C)NC(=O)C(c1ccccc1F)N(Cc1ccco1)C(=O)Cn1nnc2ccccc21 (stereo not drawn)	inconclusive: 10.4 µM [inhibitor, partial curve, poor fit]	–
CCn1nc(C)cc1C(=O)N1CCCC(CCC(=O)NCc2ccccc2F)C1 (stereo not drawn)	inconclusive: 0.828 µM [inhibitor, full curve]	–
